# According to paper PMC12431657, “Discovery and mechanistic insights of dibenzoylmethane as a broad spectrum inhibitor of coronavirus” (PLOS Pathogens, 2025):
# Like-named read-outs stand apart in the source and are kept apart here. About 95 (3%) of roughly 3,300 compounds showed an effect of 50% or more. The list shows a part of the results.
# Tested on: HCoV-229E
# Design: species or system Huh-7; HTS, protection from HCoV-229E induced cell death, luminescent cell viability (CellCounting-Lite 2.0), inhibition rate
# Details: 24 h post infection, 1 h compound pre-incubation, 10 µM, inhibitor
Compound,229E Inhibition rate [%],"229E Inhibition rate (229E Inhibition rate, 24 h) [%]"
"COc1cc(OC)c2c(=O)cc(-c3ccccc3)oc2c1 [5,7-Dimethoxyflavone]",15.8,–
C=C1[C@@H]2CC[C@@H]3[C@](C2)(C(=O)[C@@H](O)[C@@H]2C(C)(C)[C@H]4CC(=O)[C@@]32CO4)[C@@H]1OC(C)=O [Maoecrystal A],10.4,–
O=c1cc(-c2ccc(O)cc2)oc2cc(O[C@@H]3O[C@H](CO)[C@@H](O)[C@H](O)[C@H]3O[C@@H]3OC[C@](O)(CO)[C@H]3O)cc(O)c12 [Apiin],7.9,–
COc1ccc(C2COc3cc(O[C@@H]4O[C@H](CO)[C@@H](O)[C@H](O)[C@H]4O)ccc3C2)c(O)c1OC (stereo partly drawn) [Isomucronulatol 7-O-glucoside],13,–
OCCc1c[nH]c2ccc(O)cc12 [5-Hydroxytryptophol],28.5,–
CC(C)=CCC[C@](C)(O)[C@H]1CC[C@]2(C)[C@@H]1[C@H](O)C[C@@H]1[C@@]3(C)CC[C@H](O[C@@H]4O[C@H](CO)[C@@H](O)[C@H](O)[C@H]4O[C@@H]4O[C@H](CO)[C@@H](O)[C@H](O)[C@H]4O)C(C)(C)[C@@H]3CC[C@]12C [20(S)-Ginsenoside Rg3],23.7,–
C[C@@H]1O[C@@H](O[C@H]2[C@H](O)[C@@H](O)[C@H](OC[C@H]3O[C@@H](OC(=O)[C@]45CCC(C)(C)C[C@H]4C4=CC[C@@H]6[C@@]7(C)CC[C@H](O[C@@H]8OC[C@H](O)[C@H](O)[C@H]8O)[C@@](C)(CO)[C@@H]7CC[C@@]6(C)[C@]4(C)CC5)[C@H](O)[C@@H](O)[C@@H]3O)O[C@@H]2CO)[C@H](O)[C@H](O)[C@H]1O [Cauloside D],–,0
C[C@@H]1O[C@@H](O[C@H]2[C@H](O[C@H]3[C@H](O[C@H]4CC[C@]5(C)[C@H]6CC=C7[C@@H]8CC(C)(C)CC[C@]8(C(=O)O)CC[C@@]7(C)[C@]6(C)CC[C@H]5C4(C)C)OC[C@H](O)[C@@H]3O)O[C@H](CO)[C@@H](O)[C@@H]2O)[C@H](O)[C@H](O)[C@H]1O [Raddeanin A],5,–
COC(=O)[C@H]1O[C@@H](O[C@H]2CC[C@]3(C)[C@H]4CC=C5[C@@H]6CC(C)(C)CC[C@]6(C(=O)O)CC[C@@]5(C)[C@]4(C)CC[C@H]3[C@]2(C)C=O)[C@H](O)[C@@H](O)[C@@H]1O [Gypsogenin-3-O-glucuronide],16.2,–
CC(=O)N[C@@H](CC(C)C)C(=O)N[C@@H](CC(C)C)C(=O)N[C@H](C=O)CCCNC(=N)N [Leupeptin (hemisulfate)],0,–
CCCCCC1C(=O)CCC1CC(=O)OC (stereo not drawn) [Methyl dihydrojasmonate],54.7,–
O=C1CCC[C@@H]2[C@H]3CCCN4CCC[C@@H](CN12)[C@@H]34 [Matrine],47.6,–
CC1(C)C[C@@H](O)[C@]2(C)CC[C@]3(C)C(=CC[C@@H]4[C@@]5(C)CC[C@H](O)[C@](C)(CO)[C@@H]5CC[C@]43C)[C@@H]2C1 [Soyasapogenol B],3.9,–
NCC(O)c1ccccc1 (stereo not drawn) [2-Amino-1-phenylethanol],5.2,–
C[C@H]1O[C@@H](O[C@H]2CC[C@@]3(C)[C@@H](CC[C@]4(C)[C@@H]3C=CC3=C5CC(C)(C)CC[C@]5(CO)[C@@H](O)C[C@]34C)[C@]2(C)CO)[C@H](O[C@@H]2O[C@H](CO)[C@@H](O)[C@H](O)[C@H]2O)[C@@H](O[C@@H]2O[C@H](CO)[C@@H](O)[C@H](O)[C@H]2O)[C@H]1O [Buddlejasaponin IVb],0,–
Oc1ccc2c(c1)OC[C@]1(O)Cc3cc(O)c(O)cc3[C@H]21 [Brazilin],12.2,–
O=c1ccc2cc3ccoc3cc2o1 [Psoralen],40.1,–
O=C(/C=C/c1ccc(O)c(O)c1)c1ccc(O[C@@H]2O[C@H](CO)[C@@H](O)[C@H](O)[C@H]2O)c(O)c1O [Marein],17.9,–
C=C(C)[C@@H]1CC[C@]2(C(=O)O)CC[C@]3(C)[C@H](CC[C@@H]4[C@@]5(C)CC[C@H](O)C(C)(C)[C@@H]5CC[C@]43C)[C@@H]12 [Betulinic acid],8.7,–
COC(=O)C[C@H]1[C@]2(C)C3=C(C)[C@H](c4ccoc4)C[C@H]3O[C@@H]2[C@@H]2OC(=O)[C@]3(C)C=CC(=O)[C@@]1(C)[C@@H]23 [Nimbolide],3.3,–
C[C@H]1CC[C@@]2(OC1)O[C@H]1C[C@H]3[C@@H]4CC=C5C[C@@H](O[C@@H]6O[C@@H](C)[C@H](O)[C@@H](O)[C@H]6O)C[C@@H](O[C@@H]6O[C@H](C)[C@H](O)[C@H](O)[C@H]6O)[C@]5(C)[C@H]4CC[C@]3(C)[C@H]1[C@@H]2C [Liriopesides B],38,–
O=C(O)[C@H]1CC[C@H](O)CC1 [trans-4-Hydroxycyclohexanecarboxylic acid],7,–
O=C(O)C1=C[C@@H](O)[C@@H](O)[C@H](O)C1 [Shikimic acid],8.6,–
Cc1ccc(C=O)s1 [5-Methyl-2-thiophenecarboxaldehyde],19.9,–

Compound,229E Inhibition rate [%],"229E Inhibition rate (229E Inhibition rate, 24 h) [%]"
CNc1ncnc2c1ncn2[C@@H]1O[C@H](CO)[C@@H](O)[C@H]1O [N6-Methyladenosine],24.4,–
CO[C@@H]1[C@H](O)[C@@H](CO)O[C@H]1n1ccc(=O)[nH]c1=O [2′-O-Methyluridine],20.9,–
COc1cc(/C=C/C(=O)O[C@H]2CC[C@]34C[C@]35CC[C@]3(C)[C@@H]([C@H](C)CCC=C(C)C)CC[C@@]3(C)[C@@H]5CC[C@H]4C2(C)C)ccc1O [γ-Oryzanol],22.1,–
COc1cc(C(=O)OCCCCNC(=N)N)cc(OC)c1O [Leonurine],–,6.2
COC[C@@H]1Cc2cc(OC)c3c(c2[C@H](c2ccc(OC)c(OC)c2)[C@H]1COC)OCO3 [Hypophyllanthin],24.8,–
CC/C=C/CC1C(=O)CCC1CC(=O)OC (stereo not drawn) [Methyl 2-(3-oxo-2-(pent-2-en-1-yl)cyclopentyl)acetate],22,–
COc1cc2c3c(c1OC)-c1ccccc1C[C@H]3NCC2 [N-Nornuciferine],12,–
C[C@H](CCC(=O)O)[C@H]1CC[C@H]2[C@@H]3C(=O)C[C@@H]4C[C@H](O)CC[C@]4(C)[C@H]3CC[C@]12C [7-Ketolithocholic acid],20.5,–
CC(C)=CCc1c(-c2ccc(O)cc2O)oc2c3c(cc(O)c2c1=O)OC(C)(C)C=C3 [Morusin],12.3,–
C[C@H]1CC[C@@H]2[C@@H](C)[C@H]3[C@H](C[C@H]4[C@@H]5CC=C6C[C@@H](O)CC[C@]6(C)[C@H]5CC[C@]34C)N2C1 [Solanidine],24.2,–
CC1(C)CC[C@]2(C(=O)O)CC[C@]3(C)C(=CC[C@@H]4[C@@]5(C)CC[C@H](O[C@@H]6OC[C@H](O)[C@H](O)[C@H]6O)[C@@](C)(CO)[C@@H]5CC[C@]43C)[C@@H]2C1 [Cauloside A],4.8,–
N#CCCN [β-Aminopropionitrile],23.5,–
COc1cc(/C=C/C(=O)O)ccc1O [(E)-Ferulic acid],–,0
c1cncc(C2CCCCN2)c1 (racemic) [(±) Anabasine],46.6,–
C[C@H]1O[C@H](O[C@H]2[C@H](O)[C@@H](O)[C@@H](O[C@H]3[C@H](O)[C@@H](O)C(O)O[C@@H]3CO)O[C@@H]2CO)[C@H](O)[C@@H](O)[C@@H]1N[C@H]1C=C(CO)[C@@H](O)[C@H](O)[C@H]1O (stereo partly drawn) [Acarbose],12.4,–
Cc1cc(O[C@@H]2O[C@H](CO)[C@@H](O)[C@H](O)[C@H]2O)c2c(c1)C(=O)c1cccc(O)c1C2=O [Chrysophanein],51.1,–
CC1(C)CC[C@]2(C(=O)O)CC[C@]3(C)C(=CC[C@@H]4[C@@]5(C)CC[C@H](O[C@@H]6O[C@H](C(=O)O)[C@@H](O)[C@H](O[C@@H]7OC[C@@H](O)[C@H](O)[C@H]7O)[C@H]6O)C(C)(C)[C@@H]5CC[C@]43C)[C@@H]2C1 [Momordin Ic],2.6,–
C=CCc1ccc(O)c(O)c1 [4-Allylcatechol],0,–
CC(C)=CCc1c(-c2ccc(O)cc2O)oc2c(CC=C(C)C)c(O)cc(O)c2c1=O [Mulberrin],20.6,–
C[C@@H](CC[C@@]1(O)O[C@H]2C[C@H]3[C@@H]4CC[C@@H]5C[C@@H](O[C@@H]6O[C@H](CO)[C@H](O)[C@H](O)[C@H]6O[C@@H]6O[C@H](CO)[C@@H](O)[C@H](O)[C@H]6O)CC[C@]5(C)[C@H]4CC[C@]3(C)[C@H]2[C@@H]1C)CO[C@@H]1O[C@H](CO)[C@@H](O)[C@H](O)[C@H]1O [Timosaponin BII],6.1,–
COC(=O)C1=CC[C@@]23CC[C@@H]([C@@](C)(/C=C/C=C(\C)C(=O)O)OC2=O)[C@@]3(O)CC1 [Pseudolaric Acid C],9.7,–
CC(=O)O[C@H]1[C@H]2[C@H]([C@@H]3[C@H]4OC(=O)[C@@](C)(O)[C@@]5(C)C(=O)C[C@@H](C)[C@@H]([C@@H]45)[C@@]3(C)[C@H]1OC(C)=O)[C@@H](OC(C)=O)C(=O)[C@H]1C[C@@H]3O[C@@H]3[C@H](OC(C)=O)[C@]21C [Taccalonolide C],10.3,–
CC(C)c1ccc(C(=O)O)cc1 [4-Isopropylbenzoic acid],24.8,–
CC1(C)CC[C@]2(C(=O)O)CC[C@]3(C)C(=CC[C@@H]4[C@@]5(C)C[C@@H](O)[C@H](O)C(C)(C)[C@@H]5CC[C@]43C)[C@@H]2C1 [Maslinic acid],20.7,–

# Filtered by structure, the compounds so far containing an NH in an aromatic ring (2)
Compound,229E Inhibition rate [%],"229E Inhibition rate (229E Inhibition rate, 24 h) [%]"
OCCc1c[nH]c2ccc(O)cc12 [5-Hydroxytryptophol],28.5,–
CO[C@@H]1[C@H](O)[C@@H](CO)O[C@H]1n1ccc(=O)[nH]c1=O [2′-O-Methyluridine],20.9,–
